The list does not hold the whole screen: it gathers some chemical classes. Other doses and runs of a compound may be missing. T/C is the treated group as % of the vehicle group. Some entries give survivors of the animals treated and no T/C: the source holds a T/C of zero for them, seemingly a mark for toxic or unscored doses. Some doses without a T/C left all or most animals alive at the check, yet need not have been tolerated: the source hardly ever lists a survival T/C far under the control, and the zero likely stands for such cases as well. Survivors were counted at the toxicity check, usually on the fifth day, unless a day is given; later deaths do not show. Schedules are NCI's codes, read here as Q, the interval in days (D) or hours (H), X, the number of doses. Where survival is the endpoint, the PubChem record calls one and a half times the control and up active, and a quarter to a half above the control has no call in these data; cut-offs in other NCI protocols can differ. Additions like (4×) give the number of equal values in this list. Some T/C values are followed by the survivors on the day toxicity was checked, most often the fifth; without a count or a note in brackets, all were alive then. Some entries were tested several times; their values stand side by side, smallest first. Some T/C values are marked as having no survivor count here; that says nothing about deaths at the dose. Some complexes appear as separate parts, the way the source draws them; their charges need not add up.
Tested on: CD2F1 mice, L1210 leukemia ip, survival T/C
Experiment: NCI In Vivo Anticancer Drug Screen. Data for tumor model L1210 Leukemia (intraperitoneal) in CD2F1 (CDF1) mice
Conditions: T/C endpoint: mean survival time, higher T/C = longer survival
In short: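 Transplantable tumor in mice; compound-treated vs vehicle-treated groups. Read-out = treated/control ratio of the measured endpoint.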

[1] = dose: 31.3 mg/kg/injection, schedule: Q01DX001 (ip), vehicle: DMSO
[2] = dose: 62.5 mg/kg/injection, schedule: Q01DX001 (ip), vehicle: DMSO
[3] = dose: 125.0 mg/kg/injection, schedule: Q01DX001 (ip), vehicle: DMSO
[4] = dose: 250.0 mg/kg/injection, schedule: Q01DX001 (ip), vehicle: DMSO
[5] = dose: 500.0 mg/kg/injection, schedule: Q01DX001 (ip), vehicle: DMSO
[6] = dose: 100.0 mg/kg/injection, schedule: Q04DX003 (ip), vehicle: saline with Tween-80
[7] = dose: 0.75 mg/kg/injection, schedule: Q01DX009 (ip), vehicle: Klucel (hydroxypropylcellulose) (HPC)
[8] = dose: 6.25 mg/kg/injection, schedule: Q01DX009 (ip), vehicle: Klucel (hydroxypropylcellulose) (HPC)
[9] = dose: 12.5 mg/kg/injection, schedule: Q01DX009 (ip), vehicle: Klucel (hydroxypropylcellulose) (HPC)
[10] = dose: 25.0 mg/kg/injection, schedule: Q01DX009 (ip), vehicle: Klucel (hydroxypropylcellulose) (HPC)
[11] = dose: 50.0 mg/kg/injection, schedule: Q01DX009 (ip), vehicle: Klucel (hydroxypropylcellulose) (HPC)
[12] = dose: 100.0 mg/kg/injection, schedule: Q01DX009 (ip), vehicle: Klucel (hydroxypropylcellulose) (HPC)
[13] = dose: 200.0 mg/kg/injection, schedule: Q01DX009 (ip), vehicle: Klucel (hydroxypropylcellulose) (HPC)
[14] = dose: 100.0 mg/kg/injection, schedule: Q04DX003 (ip), vehicle: Klucel (hydroxypropylcellulose) (HPC)

For `NC(=O)N/N=C/CCOP(N)(=O)N(CCCl)CCCl` (centres undefined), the T/C (dose: 10.94 mg/kg/injection, schedule: Q01DX001 (ip), vehicle: DMSO) was 104 % of control, the T/C (dose: 21.88 mg/kg/injection, schedule: Q01DX001 (ip), vehicle: DMSO) was 104 % of control and the T/C (dose: 43.75 mg/kg/injection, schedule: Q01DX001 (ip), vehicle: DMSO) was 117 % of control. For the same compound, the T/C (dose: 87.5 mg/kg/injection, schedule: Q01DX001 (ip), vehicle: DMSO) was 122 % of control, the T/C (dose: 175.0 mg/kg/injection, schedule: Q01DX001 (ip), vehicle: DMSO) was 128 % of control and the T/C (dose: 350.0 mg/kg/injection, schedule: Q01DX001 (ip), vehicle: DMSO) was 144 % of control. The T/C (dose: 700.0 mg/kg/injection, schedule: Q01DX001 (ip), vehicle: DMSO) was 164 % of control.
In the case of `CC(CO)COP(N)(=O)N(CCCl)CCCl` (centres undefined), the T/C (dose: 15.62 mg/kg/injection, schedule: Q01DX001 (ip), vehicle: DMSO) is reported as 98 % of control, the T/C [1] is reported as 101 % of control and the T/C [2] is reported as 108 % of control. For the same compound, the T/C [3] was 104 % of control, the T/C [4] was 97 % of control and the T/C [5] was 97 % of control.
With `CSc1ccc(Nc2c([N+](=O)[O-])cc([N+](=O)[O-])cc2[N+](=O)[O-])cc1` the T/C [6] was 89 % of control, the T/C (dose: 200.0 mg/kg/injection, schedule: Q04DX003 (ip), vehicle: saline with Tween-80) was 87 % of control and the T/C (dose: 400.0 mg/kg/injection, schedule: Q04DX003 (ip), vehicle: saline with Tween-80) was 102 % of control.
In the case of `O=[N+]([O-])c1cc([N+](=O)[O-])c(O)c([N+](=O)[O-])c1.c1ccc(C2=c3ccc4c5c(ccc(c35)=N2)=C(c2ccccc2)N=4)cc1`, the T/C [6] is reported as 100 % of control [survivor count not shown].
For `CNc1c([N+](=O)[O-])cc([N+](=O)[O-])cc1[N+](=O)[O-]`, the T/C (dose: 100.0 mg/kg/injection, schedule: Q01DX001 (ip), vehicle: Klucel (hydroxypropylcellulose) (HPC)) was 101 % of control [survivor count not shown], the T/C (dose: 200.0 mg/kg/injection, schedule: Q01DX001 (ip), vehicle: Klucel (hydroxypropylcellulose) (HPC)) was 112 % of control [survivor count not shown] and the T/C (dose: 400.0 mg/kg/injection, schedule: Q01DX001 (ip), vehicle: Klucel (hydroxypropylcellulose) (HPC)) was 108 % of control [survivor count not shown].
With `N/C(=N\[N+](=O)[O-])N(CCCl)N=O` the T/C (dose: 100.0 mg/kg/injection, schedule: Q04DX003 (ip), vehicle: saline) was 104 % of control, the T/C (dose: 200.0 mg/kg/injection, schedule: Q04DX003 (ip), vehicle: saline) was 104 % of control and the T/C (dose: 400.0 mg/kg/injection, schedule: Q04DX003 (ip), vehicle: saline) was 104 % of control.
For `Cc1cc(N(CCBr)CCBr)ccc1N`, the T/C (dose: 0.18 mg/kg/injection, schedule: Q01DX009 (ip), vehicle: Klucel (hydroxypropylcellulose) (HPC)) was 117 % of control, the T/C (dose: 0.37 mg/kg/injection, schedule: Q01DX009 (ip), vehicle: Klucel (hydroxypropylcellulose) (HPC)) was 108 % of control and the T/C [7] was 101 % of control. For the same compound, the survivor count [7] was 6 of 6, the survivor count (dose: 1.5 mg/kg/injection, schedule: Q01DX009 (ip), vehicle: Klucel (hydroxypropylcellulose) (HPC)) was 5 of 6 and the survivor count (dose: 3.0 mg/kg/injection, schedule: Q01DX009 (ip), vehicle: Klucel (hydroxypropylcellulose) (HPC)) was 0 of 6. The survivor count [8] was 1 of 6, the survivor count [9] was 0 of 6 and the survivor count [10] was 0 of 6. For the same compound, the survivor count [11] was 0 of 3, the survivor count [12] was 0 of 3 and the survivor count [13] was 0 of 3.
For `O=P(Cl)(N(CCCl)CCCl)N1CCC(O)CC1` (centres undefined), the T/C (dose: 15.6 mg/kg/injection, schedule: Q01DX001 (ip), vehicle: DMSO) was 103 % of control, the T/C [1] was 94 % of control and the T/C [2] was 105 % of control. The T/C [3] was 107 % of control, the T/C [4] was 107 % of control and the T/C [5] was 113 % of control. For the same compound, the T/C (dose: 750.0 mg/kg/injection, schedule: Q01DX001 (ip), vehicle: DMSO) was 128 % of control [5 of 6 alive] and the survivor count (dose: 1000.0 mg/kg/injection, schedule: Q01DX001 (ip), vehicle: DMSO) was 0 of 6.
For `O=C1C(O)=C([N+](=O)[O-])C(=O)C(O)=C1[N+](=O)[O-]`, the T/C (dose: 100.0 mg/kg/injection, schedule: Q01DX009 (ip), vehicle: saline) was 100 % of control, the T/C (dose: 200.0 mg/kg/injection, schedule: Q01DX009 (ip), vehicle: saline) was 107 % of control and the T/C (dose: 400.0 mg/kg/injection, schedule: Q01DX009 (ip), vehicle: saline) was 97 % of control [4 of 6 alive].
For `ICCN(CCI)c1cccc2ccccc12`, the T/C (dose: 3.12 mg/kg/injection, schedule: Q01DX009 (ip), vehicle: Klucel (hydroxypropylcellulose) (HPC)) was 117 % of control (2×), the T/C [8] was 100 and 120 % of control and the T/C [9] was 98 and 114 % of control. For the same compound, the T/C [10] was 114 % of control, the survivor count [10] was 5 of 6 and the T/C [11] was 108 % of control. The survivor count [11] was 2 of 6, the T/C [12] was 96 % of control and the survivor count [12] was 1 of 6.
For `NCCOC(=O)N(CCCl)CCCl`, the T/C [11] was 102 % of control, the T/C [12] was 97 % of control and the T/C [13] was 100 % of control.
With `NCc1ccco1.O=[P+](O)Oc1ccccc1` the T/C (dose: 100.0 mg/kg/injection, schedule: Q04DX003 (ip), vehicle: other) was 93 % of control, the T/C (dose: 200.0 mg/kg/injection, schedule: Q04DX003 (ip), vehicle: other) was 100 % of control and the T/C (dose: 400.0 mg/kg/injection, schedule: Q04DX003 (ip), vehicle: other) was 96 % of control.
In the case of `O=[N+]([O-])c1ccc(N/N=C(/C=N/Nc2ccc([N+](=O)[O-])cc2[N+](=O)[O-])C(O)C(O)C(O)CO)c([N+](=O)[O-])c1` (centres undefined), the T/C (dose: 75.0 mg/kg/injection, schedule: Q01DX001 (ip), vehicle: saline) is reported as 103 % of control, the T/C (dose: 150.0 mg/kg/injection, schedule: Q01DX001 (ip), vehicle: saline) is reported as 94 % of control and the T/C (dose: 300.0 mg/kg/injection, schedule: Q01DX001 (ip), vehicle: saline) is reported as 97 % of control.
`ICCN(CCI)c1ccc2ccccc2c1` was tested, and the T/C (dose: 25.0 mg/kg/injection, schedule: Q04DX003 (ip), vehicle: Klucel (hydroxypropylcellulose) (HPC)) was 139 and 145 % of control [4 of 6 alive], the T/C (dose: 50.0 mg/kg/injection, schedule: Q04DX003 (ip), vehicle: Klucel (hydroxypropylcellulose) (HPC)) was 137 and 139 % of control and the T/C [14] was 102 and 119 % of control. The survivor count [14] was 6 of 6, the survivor count (dose: 200.0 mg/kg/injection, schedule: Q04DX003 (ip), vehicle: Klucel (hydroxypropylcellulose) (HPC)) was 5 of 6 and the survivor count (dose: 400.0 mg/kg/injection, schedule: Q04DX003 (ip), vehicle: Klucel (hydroxypropylcellulose) (HPC)) was 3 of 6.
In the case of `O=P1(N(CCCl)CCCl)Nc2ccccc2CO1` (centres undefined), the T/C (dose: 25.0 mg/kg/injection, schedule: Q01DX009 (ip), vehicle: water) is reported as 89 % of control, the T/C (dose: 31.8 mg/kg/injection, schedule: Q01DX001 (ip), vehicle: other) is reported as 104 % of control and the survivor count (dose: 50.0 mg/kg/injection, schedule: Q01DX009 (ip), vehicle: water) is reported as 6 of 6. The T/C (dose: 62.5 mg/kg/injection, schedule: Q01DX001 (ip), vehicle: other) was 96 % of control, the survivor count (dose: 100.0 mg/kg/injection, schedule: Q01DX009 (ip), vehicle: water) was 6 of 6 and the T/C (dose: 125.0 mg/kg/injection, schedule: Q01DX001 (ip), vehicle: other) was 100 % of control. For the same compound, the survivor count (dose: 200.0 mg/kg/injection, schedule: Q01DX009 (ip), vehicle: water) was 6 of 6, the T/C (dose: 250.0 mg/kg/injection, schedule: Q01DX001 (ip), vehicle: other) was 87 % of control and the T/C (dose: 500.0 mg/kg/injection, schedule: Q01DX001 (ip), vehicle: other) was 90 % of control.

Reference: PubChem BioAssay AID256 (DTP/NCI, 2004)
